Experimental data as given in patent US20070016978A1, “PLANTS HAVING AN ENHANCED RESISTANCE TO NECROTROPHIC PATHOGENS AND METHOD OF MAKING SAME” (priority 2005, published 2007).
Some results come without the dose or concentration used.

Assay: Lipid profile and total lipid content after glycerol application
Format: in vivo, Arabidopsis

SMILES: OCC(O)CO [glycerol]
- PA levels (glycerol-treated wt plants): marginal reduction in PA levels
- total lipids (wt plants upon glycerol application): 164 nmoles of lipids per mg dry weight
- levels of leaf MGDG and DGDG (wt plants, glycerol application): decline in the levels of leaf MGDG and DGDG
